No constants are given. Whether binding was seen depends on the method and setting. Some entries that bind do so weakly or less than the wild type.
Target: cynomolgus monkey B7-H4 (cynomolgus monkey)
Experiment: FACS on CHO-K1/cyno B7-H4 cells

binding: binds
B1: PR001476 (antibody, human IgG1, kappa, V domains shown)
VH: QVQLVESGGGVVQPGRSLRLSCAASGFTFRSFGMHWVRQAPGKGLEWVAVISYDGSNEYYADSVKGRFIISRDNSKDTLYLQMNSLRAGDTAVYYCAKGGGLRWYFAYWGQGTLVTVSS
VL: EIVMTQSPATLSVSPGERATLSCRASQSISSNLGWYQQKPGQAPRLLIYGASTRATGIPARFSGSGSGTEFTLTISSLQSEDFAVYYCQQYNSWPPLTFGGGTKVEIKR
